Values from PubChem BioAssay AID1259308 (NCATS, 2017).
In all, the deposit lists about 59,000 reagents; below is a random part of them. Over the whole deposit, about 1,510 (2.6%) are marked active. 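Calls use total luciferase alone and ignore viability, so some active siRNAs may act by altering cell number.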 The numbers tell different reagents against one gene apart. Not all columns of the deposit are shown.

Test: 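Knock-downs that increase output of a recombinant reporter protein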 (primary screen)
Cells: human HEK293 embryonic kidney cells stably expressing firefly luciferase (HEK-CMV-Luc2-Hygro)
Reagent: single siRNA against human genes, 0.8 pmol siRNA per well
Duration: 72 h
Read-out: 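Reporter luminescence and viable-cell signal on separate replicate plates, given as percent of non-targeting control and median/MAD z-scores, plus per-cell luciferase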
Direction: total luciferase, z-score: higher = more reporter protein produced
Call rule: 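An siRNA counts as active if its total luciferase robust z-score exceeds 3; genes with two or more such siRNAs out of three were retested with fresh siRNAs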
Meaning of the calls: active = raised luciferase; inactive = no rise

PPBPP1 (pro-platelet basic protein pseudogene 1) #1 | total luciferase, z-score: 1.69; call: inactive
PPBPP1 (pro-platelet basic protein pseudogene 1) #2 | total luciferase, z-score: -0.564; call: inactive
PPBPP1 (pro-platelet basic protein pseudogene 1) #3 | total luciferase, z-score: -0.223; call: inactive
RGPD5 (RANBP2 like and GRIP domain containing 5) #1 | total luciferase, z-score: -0.0821; call: inactive
RGPD5 (RANBP2 like and GRIP domain containing 5) #2 | total luciferase, z-score: -0.0178; call: inactive
RGPD5 (RANBP2 like and GRIP domain containing 5) #3 | total luciferase, z-score: 0.199; call: inactive
RHOQ (ras homolog family member Q) #1 | total luciferase, z-score: 0.4; call: inactive
RHOQ (ras homolog family member Q) #2 | total luciferase, z-score: -0.428; call: inactive
RHOQ (ras homolog family member Q) #3 | total luciferase, z-score: 0.0945; call: inactive
SPANXN4 (SPANX family member N4) #1 | total luciferase, z-score: 0.0125; call: inactive
SPANXN4 (SPANX family member N4) #2 | total luciferase, z-score: 0.0884; call: inactive
SPANXN4 (SPANX family member N4) #3 | total luciferase, z-score: 1.11; call: inactive
NLN (neurolysin) #1 | total luciferase, z-score: 0.295; call: inactive
NLN (neurolysin) #2 | total luciferase, z-score: 0.685; call: inactive
NLN (neurolysin) #3 | total luciferase, z-score: 0.181; call: inactive
ZNF397 (zinc finger protein 397) #1 | total luciferase, z-score: 0.158; call: inactive
ZNF397 (zinc finger protein 397) #2 | total luciferase, z-score: -1.63; call: inactive
ZNF397 (zinc finger protein 397) #3 | total luciferase, z-score: 0.107; call: inactive
PABPC5 (poly(A) binding protein cytoplasmic 5) #1 | total luciferase, z-score: -0.54; call: inactive
PABPC5 (poly(A) binding protein cytoplasmic 5) #2 | total luciferase, z-score: -0.813; call: inactive
PABPC5 (poly(A) binding protein cytoplasmic 5) #3 | total luciferase, z-score: -0.377; call: inactive
NADK2 (NAD kinase 2, mitochondrial) #1 | total luciferase, z-score: -0.349; call: inactive
NADK2 (NAD kinase 2, mitochondrial) #2 | total luciferase, z-score: -0.0595; call: inactive
NADK2 (NAD kinase 2, mitochondrial) #3 | total luciferase, z-score: -1.41; call: inactive
GPRC5C (G protein-coupled receptor class C group 5 member C) #1 | total luciferase, z-score: 0.675; call: inactive
GPRC5C (G protein-coupled receptor class C group 5 member C) #2 | total luciferase, z-score: 2.84; call: inactive
GPRC5C (G protein-coupled receptor class C group 5 member C) #3 | total luciferase, z-score: 1.69; call: inactive
DYNLRB1 (dynein light chain roadblock-type 1) #1 | total luciferase, z-score: -1.76; call: inactive
DYNLRB1 (dynein light chain roadblock-type 1) #2 | total luciferase, z-score: 1.25; call: inactive
DYNLRB1 (dynein light chain roadblock-type 1) #3 | total luciferase, z-score: 0.827; call: inactive
OR5B3 (olfactory receptor family 5 subfamily B member 3) #1 | total luciferase, z-score: 2.5; call: inactive
OR5B3 (olfactory receptor family 5 subfamily B member 3) #2 | total luciferase, z-score: 0.0174; call: inactive
OR5B3 (olfactory receptor family 5 subfamily B member 3) #3 | total luciferase, z-score: -0.722; call: inactive

In a second layout: 2 of the entries above.
gene knocked down,reagent,"total luciferase, z-score",call
PABPC5 (poly(A) binding protein cytoplasmic 5),3,-0.377,inactive
"NADK2 (NAD kinase 2, mitochondrial)",1,-0.349,inactive
